{"sequences": {"note": "The chains behind the UniProt entries cited, without tags or fusion partners. Where a name states a change or a piece, a line headed by the entry shows the natural chain unless it says otherwise.", "UniProt P14625, whole entry": "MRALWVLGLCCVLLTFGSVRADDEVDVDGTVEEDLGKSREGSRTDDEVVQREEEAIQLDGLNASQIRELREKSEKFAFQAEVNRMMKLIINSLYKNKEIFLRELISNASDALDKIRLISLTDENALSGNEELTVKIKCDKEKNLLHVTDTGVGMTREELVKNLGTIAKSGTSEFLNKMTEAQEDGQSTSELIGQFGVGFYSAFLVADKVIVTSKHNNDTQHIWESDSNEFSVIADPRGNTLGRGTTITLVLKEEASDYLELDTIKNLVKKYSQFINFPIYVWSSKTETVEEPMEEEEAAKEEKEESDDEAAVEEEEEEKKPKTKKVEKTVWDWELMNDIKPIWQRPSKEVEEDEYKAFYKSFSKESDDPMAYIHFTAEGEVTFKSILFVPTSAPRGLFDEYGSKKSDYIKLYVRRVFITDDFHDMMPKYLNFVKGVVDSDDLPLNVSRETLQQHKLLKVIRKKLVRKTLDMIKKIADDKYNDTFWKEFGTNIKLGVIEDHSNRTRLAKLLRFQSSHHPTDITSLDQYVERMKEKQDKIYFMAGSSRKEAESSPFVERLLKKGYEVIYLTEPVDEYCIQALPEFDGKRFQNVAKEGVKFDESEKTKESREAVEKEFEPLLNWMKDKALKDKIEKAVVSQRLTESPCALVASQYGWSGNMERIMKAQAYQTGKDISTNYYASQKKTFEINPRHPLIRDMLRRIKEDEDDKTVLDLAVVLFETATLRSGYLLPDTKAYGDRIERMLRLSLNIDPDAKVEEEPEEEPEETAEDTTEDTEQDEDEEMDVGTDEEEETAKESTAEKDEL", "UniProt P38646": "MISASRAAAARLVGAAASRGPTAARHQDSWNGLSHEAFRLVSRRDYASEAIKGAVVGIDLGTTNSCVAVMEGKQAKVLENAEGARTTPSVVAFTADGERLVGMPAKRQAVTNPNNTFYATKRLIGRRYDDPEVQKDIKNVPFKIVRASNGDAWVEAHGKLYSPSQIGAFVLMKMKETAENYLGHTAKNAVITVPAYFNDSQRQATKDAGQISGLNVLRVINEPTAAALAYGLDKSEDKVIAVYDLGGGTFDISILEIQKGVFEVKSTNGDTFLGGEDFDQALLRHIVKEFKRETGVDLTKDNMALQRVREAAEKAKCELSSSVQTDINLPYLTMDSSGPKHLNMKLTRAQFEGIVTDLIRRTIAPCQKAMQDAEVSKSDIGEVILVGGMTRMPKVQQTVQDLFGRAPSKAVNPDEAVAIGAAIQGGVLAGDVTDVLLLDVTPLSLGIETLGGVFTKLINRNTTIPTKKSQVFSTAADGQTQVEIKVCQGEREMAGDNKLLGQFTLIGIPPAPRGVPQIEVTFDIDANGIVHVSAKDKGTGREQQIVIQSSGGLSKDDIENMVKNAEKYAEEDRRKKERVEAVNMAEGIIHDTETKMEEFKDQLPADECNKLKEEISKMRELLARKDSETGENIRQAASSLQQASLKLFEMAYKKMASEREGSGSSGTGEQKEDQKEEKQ", "UniProt Q9BUP3": "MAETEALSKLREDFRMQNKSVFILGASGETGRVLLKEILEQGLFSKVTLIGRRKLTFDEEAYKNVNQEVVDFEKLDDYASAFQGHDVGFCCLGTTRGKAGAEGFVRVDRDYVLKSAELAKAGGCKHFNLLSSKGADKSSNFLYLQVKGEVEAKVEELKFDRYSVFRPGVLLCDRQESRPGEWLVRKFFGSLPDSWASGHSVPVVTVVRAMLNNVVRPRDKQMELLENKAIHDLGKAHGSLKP"}, "source": "paper PMC5996148", "test_in_all_cases": "protein microarray (ProtoArray v5.0), streptavidin-Alexa Fluor 647", "conditions_in_all_cases": "3'-biotin; 20 mM Tris (pH 7.5), 5 mM MgCl2, 100 mM KCl, 0.1% Tween-20, A/T-rich and random oligonucleotide blockers; temperature not stated; high values mean tight binding", "key": {"HSD11B1 (human)": {"tested_on": "HSD11B1 (human)"}, "HSD17B10 (human)": {"tested_on": "HSD17B10 (human)"}, "HSD17B8 (human)": {"tested_on": "HSD17B8 (human)"}, "HSD3B2 (human)": {"tested_on": "HSD3B2 (human)"}, "HSDL2 (human)": {"tested_on": "HSDL2 (human)"}, "HSF1 (human)": {"tested_on": "HSF1 (human)"}, "HSH2D (human)": {"tested_on": "HSH2D (human)"}, "HSP90B1": {"molecular_target": "HSP90B1 (UniProt P14625)"}, "HSPA2 (human)": {"tested_on": "HSPA2 (human)"}, "HSPA4 (human)": {"tested_on": "HSPA4 (human)"}, "HSPA9": {"molecular_target": "HSPA9 (UniProt P38646)"}, "HSPBAP1 (human)": {"tested_on": "HSPBAP1 (human)"}, "HSPBP1 (human)": {"tested_on": "HSPBP1 (human)"}, "HSPC111 (human)": {"tested_on": "HSPC111 (human)"}, "HSPC142 (human)": {"tested_on": "HSPC142 (human)"}, "HSPC152 (human)": {"tested_on": "HSPC152 (human)"}, "HSPE1 (human)": {"tested_on": "HSPE1 (human)"}, "HSPH1 (human)": {"tested_on": "HSPH1 (human)"}, "HTATIP2": {"molecular_target": "HTATIP2 (UniProt Q9BUP3)"}, "HTR1E (human)": {"tested_on": "HTR1E (human)"}}, "note": "“And” between values parts separate entries of the source, which are not always exact repeats. Equal entries are not always repeated. This is one part of the list. For some assays here: Construct or isoform of the protein are uncertain.", "data": [{"sequence": "GGGAGGCTGAGGCAGG [G4-1 biotinylated (PQS2)]", "values": [{"measurement": "binding signal", "setting": "HSD11B1 (human)", "value": -0.338, "unit": "z-score"}, {"measurement": "binding signal", "setting": "HSD17B10 (human)", "value": -0.305, "unit": "z-score"}, {"measurement": "binding signal", "setting": "HSD17B8 (human)", "value": -0.321, "unit": "z-score"}, {"measurement": "binding signal", "setting": "HSD3B2 (human)", "value": -0.326, "unit": "z-score"}, {"measurement": "binding signal", "setting": "HSDL2 (human)", "value": -0.265, "unit": "z-score"}, {"measurement": "binding signal", "setting": "HSF1 (human)", "value": -0.354, "unit": "z-score"}, {"measurement": "binding signal", "setting": "HSH2D (human)", "value": -0.306, "unit": "z-score"}, {"measurement": "binding signal", "setting": "HSP90B1", "value": -0.323, "unit": "z-score"}, {"measurement": "binding signal", "setting": "HSPA2 (human)", "value": -0.246, "unit": "z-score"}, {"measurement": "binding signal", "setting": "HSPA4 (human)", "value": -0.323, "unit": "z-score"}, {"measurement": "binding signal", "setting": "HSPA9", "value": -0.335, "unit": "z-score"}, {"measurement": "binding signal", "setting": "HSPBAP1 (human)", "value": "-0.312 z-score and -0.33 z-score"}, {"measurement": "binding signal", "setting": "HSPBP1 (human)", "value": -0.372, "unit": "z-score"}, {"measurement": "binding signal", "setting": "HSPC111 (human)", "value": 7.99, "unit": "z-score"}, {"measurement": "binding signal", "setting": "HSPC142 (human)", "value": -0.346, "unit": "z-score"}, {"measurement": "binding signal", "setting": "HSPC152 (human)", "value": "-0.326 z-score and -0.297 z-score"}, {"measurement": "binding signal", "setting": "HSPE1 (human)", "value": -0.324, "unit": "z-score"}, {"measurement": "binding signal", "setting": "HSPH1 (human)", "value": -0.321, "unit": "z-score"}, {"measurement": "binding signal", "setting": "HTATIP2", "value": -0.344, "unit": "z-score"}, {"measurement": "binding signal", "setting": "HTR1E (human)", "value": -0.299, "unit": "z-score"}]}]}
